Data taken from article PMC2873289, “A Helix Replacement Mechanism Directs Metavinculin Functions” (PLoS ONE, 2010).
These are yes or no findings as the source states them, for the method shown.

What was measured:
[1] = molecular target: GST tagged vinculin tail domain (GST-Vt; residues 879–1,066) (human) (UniProt P18206); assay: pull-down; GST-Vt on GST-Sepharose beads, with or without PIP2; tail domains (MVt, MVt-ΔH1) or Vh2–Vh3 as negative control; SDS-PAGE and Western blot with HRP-conjugated αHis or αGST antibodies; both purified
[2] = molecular target: T1, full-length human metavinculin (residues 1–1,134) (human), P18206; assay: native gel or EMSA; native gel of the full-length proteins; for metavinculin-ΔH1′ and metavinculin-ΔH1ΔH1′ the peak fractions of each species from gel filtration; identities confirmed by Western blot; without PIP2; both purified; conditions: remark: other sources report otherwise
T1 chain: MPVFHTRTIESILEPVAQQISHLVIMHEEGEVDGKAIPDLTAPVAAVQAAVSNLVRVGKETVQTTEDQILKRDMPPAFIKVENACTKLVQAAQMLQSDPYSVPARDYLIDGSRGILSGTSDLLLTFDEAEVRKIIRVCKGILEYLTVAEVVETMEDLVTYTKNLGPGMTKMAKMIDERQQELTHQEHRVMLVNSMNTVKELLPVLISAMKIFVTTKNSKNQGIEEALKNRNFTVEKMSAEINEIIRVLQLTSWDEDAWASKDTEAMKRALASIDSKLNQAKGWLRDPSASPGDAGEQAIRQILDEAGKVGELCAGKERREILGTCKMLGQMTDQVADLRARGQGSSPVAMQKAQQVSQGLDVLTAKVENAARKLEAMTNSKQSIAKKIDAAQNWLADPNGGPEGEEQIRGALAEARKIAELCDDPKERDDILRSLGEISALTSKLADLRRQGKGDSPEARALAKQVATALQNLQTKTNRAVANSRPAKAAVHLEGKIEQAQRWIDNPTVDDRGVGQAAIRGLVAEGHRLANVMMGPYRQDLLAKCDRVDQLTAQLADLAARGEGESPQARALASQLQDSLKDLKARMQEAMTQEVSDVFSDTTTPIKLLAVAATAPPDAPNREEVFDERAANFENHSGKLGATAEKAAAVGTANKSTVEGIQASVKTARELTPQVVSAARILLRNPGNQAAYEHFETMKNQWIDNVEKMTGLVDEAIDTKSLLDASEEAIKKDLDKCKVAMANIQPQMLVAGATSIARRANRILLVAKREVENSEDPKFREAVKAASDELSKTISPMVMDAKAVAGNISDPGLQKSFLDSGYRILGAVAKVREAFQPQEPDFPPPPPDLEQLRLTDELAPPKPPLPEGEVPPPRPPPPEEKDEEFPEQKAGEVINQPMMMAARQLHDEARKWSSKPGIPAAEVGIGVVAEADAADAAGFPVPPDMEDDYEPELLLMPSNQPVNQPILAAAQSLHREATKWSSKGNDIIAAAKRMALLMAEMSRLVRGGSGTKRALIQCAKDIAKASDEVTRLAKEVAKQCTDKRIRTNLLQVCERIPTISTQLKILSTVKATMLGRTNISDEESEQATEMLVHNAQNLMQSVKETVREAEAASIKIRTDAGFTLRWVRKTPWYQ

[3] = molecular target: T1, full-length human metavinculin …; assay: SEC; Hiload 26/60 Superdex 200 calibrated with molecular weight markers; without PIP2; both purified; conditions: remark: other sources report otherwise

Row | Molecule | binding [1] | binding [2] | binding [3]
1 | truncated vinculin head domain (Vh2–Vh3; residues 260–718) (from UniProt P18206 260-718) (domain or fragment) | no binding | – | –
2 | full-length human metavinculin (residues 1–1,134), P18206 1-1134 (protein) MPVFHTRTIESILEPVAQQISHLVIMHEEGEVDGKAIPDLTAPVAAVQAAVSNLVRVGKETVQTTEDQILKRDMPPAFIKVENACTKLVQAAQMLQSDPYSVPARDYLIDGSRGILSGTSDLLLTFDEAEVRKIIRVCKGILEYLTVAEVVETMEDLVTYTKNLGPGMTKMAKMIDERQQELTHQEHRVMLVNSMNTVKELLPVLISAMKIFVTTKNSKNQGIEEALKNRNFTVEKMSAEINEIIRVLQLTSWDEDAWASKDTEAMKRALASIDSKLNQAKGWLRDPSASPGDAGEQAIRQILDEAGKVGELCAGKERREILGTCKMLGQMTDQVADLRARGQGSSPVAMQKAQQVSQGLDVLTAKVENAARKLEAMTNSKQSIAKKIDAAQNWLADPNGGPEGEEQIRGALAEARKIAELCDDPKERDDILRSLGEISALTSKLADLRRQGKGDSPEARALAKQVATALQNLQTKTNRAVANSRPAKAAVHLEGKIEQAQRWIDNPTVDDRGVGQAAIRGLVAEGHRLANVMMGPYRQDLLAKCDRVDQLTAQLADLAARGEGESPQARALASQLQDSLKDLKARMQEAMTQEVSDVFSDTTTPIKLLAVAATAPPDAPNREEVFDERAANFENHSGKLGATAEKAAAVGTANKSTVEGIQASVKTARELTPQVVSAARILLRNPGNQAAYEHFETMKNQWIDNVEKMTGLVDEAIDTKSLLDASEEAIKKDLDKCKVAMANIQPQMLVAGATSIARRANRILLVAKREVENSEDPKFREAVKAASDELSKTISPMVMDAKAVAGNISDPGLQKSFLDSGYRILGAVAKVREAFQPQEPDFPPPPPDLEQLRLTDELAPPKPPLPEGEVPPPRPPPPEEKDEEFPEQKAGEVINQPMMMAARQLHDEARKWSSKPGIPAAEVGIGVVAEADAADAAGFPVPPDMEDDYEPELLLMPSNQPVNQPILAAAQSLHREATKWSSKGNDIIAAAKRMALLMAEMSRLVRGGSGTKRALIQCAKDIAKASDEVTRLAKEVAKQCTDKRIRTNLLQVCERIPTISTQLKILSTVKATMLGRTNISDEESEQATEMLVHNAQNLMQSVKETVREAEAASIKIRTDAGFTLRWVRKTPWYQ | – | no binding | no binding
